PubChem BioAssay AID1259254 – NCATS | 2017
Shown is a random part of about 59,000 reagents. Over the whole deposit, about 1,550 (2.6%) are marked active. 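G2 share is only a proxy for re-replication; each gene was hit by three separate siRNAs, and active genes were retested.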 Not all columns of the deposit are shown. No sequences are given here. Not given: the amount of reagent.

Assay: 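Genome-wide screen for genes that prevent DNA re-replication in cancer cells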 (primary screen)
System: human HCT116 colorectal cancer cells
Knock-down reagent: single siRNA against human genes
Time to read-out: 3 days
Read-out: 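Nuclei stained with Hoechst and imaged; cell-cycle phase assigned by DNA content; G2 share scaled per plate, non-targeting siRNA 0%, GMNN siRNA 100%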
Reading the numbers: G2 robust z-score and G2 cells, % of GMNN control: higher = more G2 cells, more excess DNA replication
Call rule: 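Active siRNAs have a G2 robust z of 5 or more median absolute deviations over the median, which in these data means about 38% or higher of GMNN control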

| Gene | PubChem SID | G2 robust z-score | G2 cells, % of GMNN control | outcome |
| --- | --- | --- | --- | --- |
| ALDH1A3 | SID160730788 | -0.704 | -1.99 | inactive |
| ALDH1A3 | SID160742756 | -0.773 | -2.47 | inactive |
| ALDH1A3 | SID160744877 | -0.698 | -1.95 | inactive |
| OR10J5 | SID160756615 | -0.961 | -3.79 | inactive |
| OR10J5 | SID160756616 | 1.28 | 12 | inactive |
| OR10J5 | SID160756617 | -0.248 | 1.22 | inactive |
| SLC2A4 | SID160716814 | 5.22 | 39.7 | active |
| SLC2A4 | SID160716815 | -0.564 | -0.998 | inactive |
| SLC2A4 | SID160716816 | 2 | 17 | inactive |
| LINGO3 | SID160769465 | -0.418 | 0.0262 | inactive |
| LINGO3 | SID160769466 | 0.0649 | 3.42 | inactive |
| LINGO3 | SID160769467 | 0.647 | 7.52 | inactive |
| LOC440386 (retired record) | SID160733392 | 2.45 | 20.2 | inactive |
| LOC440386 (retired record) | SID160767767 | 0.102 | 3.69 | inactive |
| LOC440386 (retired record) | SID160767768 | -0.966 | -3.83 | inactive |
| LOC112268070 | SID160725200 | -1.33 | -6.39 | inactive |
| LOC112268070 | SID160765917 | -1.33 | -6.38 | inactive |
| LOC112268070 | SID160765918 | 0.519 | 6.62 | inactive |
| LINC00632 | SID160763847 | 1.03 | 10.2 | inactive |
| LINC00632 | SID160763848 | 3.51 | 27.7 | inactive |
| LINC00632 | SID160763849 | -0.125 | 2.09 | inactive |
| EFCAB6 | SID160748016 | -0.655 | -1.64 | inactive |
| EFCAB6 | SID160748017 | 0.652 | 7.55 | inactive |
| EFCAB6 | SID160748018 | 0.681 | 7.76 | inactive |
| FGF10 | SID160765208 | -1.05 | -4.42 | inactive |
| FGF10 | SID160765219 | -0.812 | -2.74 | inactive |
| FGF10 | SID160765230 | -0.972 | -3.87 | inactive |
| CPSF3 | SID160741219 | -0.728 | -2.15 | inactive |
| CPSF3 | SID160741220 | 2.6 | 21.3 | inactive |
| CPSF3 | SID160741221 | 0.696 | 7.86 | inactive |
| OR4B1 | SID160755759 | -0.661 | -1.68 | inactive |
| OR4B1 | SID160755760 | 0.796 | 8.57 | inactive |
| OR4B1 | SID160755761 | -0.158 | 1.86 | inactive |
| ZNF578 | SID160758533 | -0.325 | 0.678 | inactive |
| ZNF578 | SID160758534 | -0.857 | -3.07 | inactive |
| ZNF578 | SID160758535 | -0.392 | 0.211 | inactive |

3 consecutive entries from above, for reference:
| Gene | PubChem SID | G2 robust z-score | G2 cells, % of GMNN control | outcome |
| --- | --- | --- | --- | --- |
| LINGO3 | SID160769467 | 0.647 | 7.52 | inactive |
| LOC440386 (retired record) | SID160733392 | 2.45 | 20.2 | inactive |
| LOC440386 (retired record) | SID160767767 | 0.102 | 3.69 | inactive |

The list goes on.
| Gene | PubChem SID | G2 robust z-score | G2 cells, % of GMNN control | outcome |
| --- | --- | --- | --- | --- |
| TRIM38 | SID160728518 | 3.08 | 24.6 | inactive |
| TRIM38 | SID160728519 | -0.225 | 1.38 | inactive |
| TRIM38 | SID160728520 | -0.893 | -3.31 | inactive |
| FMO3 | SID160766731 | 0.568 | 6.97 | inactive |
| FMO3 | SID160766736 | 2.51 | 20.6 | inactive |
| FMO3 | SID160766745 | -0.265 | 1.11 | inactive |
| RPS15AP25 | SID160772118 | 4.05 | 31.4 | inactive |
| RPS15AP25 | SID160772119 | 0.298 | 5.06 | inactive |
| RPS15AP25 | SID160772120 | -0.568 | -1.03 | inactive |
| PLAGL2 | SID160714423 | -0.959 | -3.78 | inactive |
| PLAGL2 | SID160714424 | -0.803 | -2.68 | inactive |
| PLAGL2 | SID160714425 | 2.09 | 17.7 | inactive |
| EXOC5 | SID160728934 | 1.69 | 14.9 | inactive |
| EXOC5 | SID160728935 | 0.719 | 8.02 | inactive |
| EXOC5 | SID160728936 | 2.6 | 21.2 | inactive |
| CDH6 | SID160740479 | -1.38 | -6.77 | inactive |
| CDH6 | SID160740490 | -0.611 | -1.33 | inactive |
| CDH6 | SID160740501 | -0.762 | -2.4 | inactive |
| SERPINA9 | SID160763958 | 1.33 | 12.3 | inactive |
| SERPINA9 | SID160763959 | -0.141 | 1.98 | inactive |
| SERPINA9 | SID160763961 | 0.475 | 6.31 | inactive |
| ZNF56P | SID160773390 | 0.326 | 5.26 | inactive |
| ZNF56P | SID160773391 | 2.68 | 21.8 | inactive |
| ZNF56P | SID160773392 | -0.497 | -0.528 | inactive |
| TPBGL | SID160725441 | -0.715 | -2.06 | inactive |
| TPBGL | SID160725442 | -0.311 | 0.782 | inactive |
| TPBGL | SID160768053 | -0.0819 | 2.39 | inactive |
| NDUFS3 | SID160731280 | -0.893 | -3.31 | inactive |
| NDUFS3 | SID160777900 | -0.718 | -2.08 | inactive |
| NDUFS3 | SID160777901 | 0.133 | 3.9 | inactive |
| C9orf78 | SID160741317 | -0.778 | -2.5 | inactive |
| C9orf78 | SID160741318 | 3.28 | 26 | inactive |
| C9orf78 | SID160741319 | 0.395 | 5.74 | inactive |
